In patent US20160343958A1, “ORGANIC TRANSISTOR, COMPOUND, ORGANIC SEMICONDUCTOR MATERIAL FOR NON-LIGHT-EMITTING ORGANIC SEMICONDUCTOR DEVICE, MATERIAL FOR ORGANIC TRANSISTOR, COATING SOLUTION FOR NON-LIGHT-EMITTING ORGANIC SEMICONDUCTOR DEVICE, AND ORGANIC SEMICONDUCTOR FILM FOR NON-LIGHT-EMITTING ORGANIC SEMICONDUCTOR DEVICE” (FUJIFILM Corporation, priority 2014, published 2016):
Some entries repeat one wording, which the source may state once for all of them.

Columns and labels:
Conditions in all cases: 5-level grade A-E
[1] = Quality of coating film (average domain size, polarization microscope)
[2] = Variation (coefficient of variation of mobility of 30 elements)
[3] = Threshold voltage shift after repeated driving (threshold shift)

SMILES	Quality of coating film [1]	Variation [2]	Threshold shift [3]
c1ccc(-c2cccc(-c3ccc4sc5c(ccc6c7cc(-c8cccc(-c9ccccc9)c8)ccc7sc65)c4c3)c2)cc1 [compound 3, reference compound]	C (The average domain size was greater than 1 μm but equal to or less than 5 μm.)	D (Equal to or greater than 100% but less than 200%)	C (5 V<|Vafter−Vbefore|≦10 V)
CCCCCCCCCCCCc1ccc2c(c1)sc1c2ccc2c3ccc(CCCCCCCCCCCC)cc3sc21 [Compound example 10]	A (The average domain size was greater than 10 μm.)	A (Less than 30%)	A (|Vafter−Vbefore|≦1 V)
CCCCCCC#Cc1ccc2c(c1)sc1c2ccc2c3ccc(C#CCCCCCC)cc3sc21 [Compound example 310]	A (The average domain size was greater than 10 μm.)	A (Less than 30%)	B (1 V<|Vafter−Vbefore|≦5 V)
CCCCCCCCOc1ccc2c(c1)sc1c2ccc2c3ccc(OCCCCCCCC)cc3sc21 [Compound example 326]	A (The average domain size was greater than 10 μm.)	A (Less than 30%)	B (1 V<|Vafter−Vbefore|≦5 V)
CCCCCCCCCCCCc1ccc(-c2ccc3c(c2)sc2c3ccc3c4ccccc4sc32)cc1 [Compound example 372]	C (The average domain size was greater than 1 μm but equal to or less than 5 μm.)	C (Equal to or greater than 50% but less than 100%)	C (5 V<|Vafter−Vbefore|≦10 V)
CCCc1ccc2c(c1)sc1c2ccc2c3ccc(CCC)cc3sc21 [Compound example 1]	C (The average domain size was greater than 1 μm but equal to or less than 5 μm.)	B (Equal to or greater than 30% but less than 50%)	B (1 V<|Vafter−Vbefore|≦5 V)
CCCCCCCCc1ccc(-c2ccc3c(c2)sc2c3ccc3c4ccc(-c5ccc(CCCCCCCC)cc5)cc4sc32)cc1 [Compound example 34]	B (The average domain size was greater than 5 μm but equal to or less than 10 μm.)	A (Less than 30%)	B (1 V<|Vafter−Vbefore|≦5 V)
C[Si](C)(C)C#Cc1c(C#C[Si](C)(C)C)c2c3ccc(-c4cccs4)cc3sc2c2sc3cc(-c4cccs4)ccc3c12 [Compound example 427]	C (The average domain size was greater than 1 μm but equal to or less than 5 μm.)	C (Equal to or greater than 50% but less than 100%)	C (5 V<|Vafter−Vbefore|≦10 V)
CCCCC(CC)Cc1ccc2c(c1)sc1c2ccc2c3ccc(CC(CC)CCCC)cc3sc21 (stereo not drawn) [Compound example 407]	A (The average domain size was greater than 10 μm.)	A (Less than 30%)	A (|Vafter−Vbefore|≦1 V)
CCCCCc1ccc2c(c1)sc1c2ccc2c3ccc(CCCCC)cc3sc21 [Compound example 3]	A (The average domain size was greater than 10 μm.)	A (Less than 30%)	A (|Vafter−Vbefore|≦1 V)
CCCCCCCC/C=C/c1ccc2c(c1)sc1c2ccc2c3ccc(/C=C/CCCCCCCC)cc3sc21 [Compound example 298]	A (The average domain size was greater than 10 μm.)	A (Less than 30%)	B (1 V<|Vafter−Vbefore|≦5 V)
CCCCCCCCc1ccc(-c2ccc3c(c2)sc2c3ccc3c4ccc(-c5ccc(CCCCCCCC)s5)cc4sc32)s1 [Compound example 62]	B (The average domain size was greater than 5 μm but equal to or less than 10 μm.)	A (Less than 30%)	B (1 V<|Vafter−Vbefore|≦5 V)
CCCCCCCCc1ccc2sc3c(ccc4c5cc(CCCCCCCC)ccc5sc43)c2c1 [Compound example 396]	C (The average domain size was greater than 1 μm but equal to or less than 5 μm.)	B (Equal to or greater than 30% but less than 50%)	B (1 V<|Vafter−Vbefore|≦5 V)
CCCCCCCCCCCCc1ccc2cc3c(cc2c1)sc1c3ccc2c3cc4ccc(CCCCCCCCCCCC)cc4cc3sc21 [Compound example 24]	A (The average domain size was greater than 10 μm.)	A (Less than 30%)	A (|Vafter−Vbefore|≦1 V)
c1ccc(-c2ccc3sc4c5sc6ccc(-c7ccccc7)cc6c5c(-c5ccccc5)c(-c5ccccc5)c4c3c2)cc1 [compound 4, reference compound]	D (The average domain size was greater than 0.5 μm but equal to or less than 1 μm.)	D (Equal to or greater than 100% but less than 200%)	C (5 V<|Vafter−Vbefore|≦10 V)
CCCCCCCCCCCCCCCCCCc1ccc2c(c1)sc1c2ccc2c3ccc(CCCCCCCCCCCCCCCCCC)cc3sc21 [Compound example 16]	C (The average domain size was greater than 1 μm but equal to or less than 5 μm.)	B (Equal to or greater than 30% but less than 50%)	B (1 V<|Vafter−Vbefore|≦5 V)
c1ccc2c(c1)sc1c2ccc2c3ccccc3sc21 [comparative compound 1, reference compound]	E (The average domain size was equal to or less than 0.5 μm.)	E (Equal to or greater than 200%)	C (5 V<|Vafter−Vbefore|≦10 V)
CCCCCCCCc1ccc2c(c1)oc1c2ccc2c3ccc(CCCCCCCC)cc3oc21 [Compound example 416]	C (The average domain size was greater than 1 μm but equal to or less than 5 μm.)	C (Equal to or greater than 50% but less than 100%)	C (5 V<|Vafter−Vbefore|≦10 V)
CCCCCCCCc1ccc2cc3c(cc2c1)sc1c3ccc2c3cc4ccc(CCCCCCCC)cc4cc3sc21 [Compound example 20]	A (The average domain size was greater than 10 μm.)	A (Less than 30%)	A (|Vafter−Vbefore|≦1 V)
CCCCCCCCc1ccc2c(c1)sc1c2ccc2c3ccc(CCCCCCCC)cc3sc21 [Compound example 6]	A (The average domain size was greater than 10 μm.)	A (Less than 30%)	A (|Vafter−Vbefore|≦1 V)
CCCCCCCCCCCCc1ccc2c(c1)sc1c2ccc2c3ccccc3sc21 [Compound example 358]	C (The average domain size was greater than 1 μm but equal to or less than 5 μm.)	C (Equal to or greater than 50% but less than 100%)	C (5 V<|Vafter−Vbefore|≦10 V)
CCCCCCCCCCCCc1ccc2cc3c(cc2c1)sc1c3ccc2c3ccc(CCCCCCCCCCCC)cc3sc21 [Compound example 344]	C (The average domain size was greater than 1 μm but equal to or less than 5 μm.)	C (Equal to or greater than 50% but less than 100%)	C (5 V<|Vafter−Vbefore|≦10 V)
Cc1ccc2c(c1)sc1c2ccc2c3ccc(C)cc3sc21 [comparative compound 2, reference compound]	E (The average domain size was equal to or less than 0.5 μm.)	E (Equal to or greater than 200%)	C (5 V<|Vafter−Vbefore|≦10 V)
c1ccc2c(c1)sc1c2ccc2c3cccc(-c4ccc5c6ccccc6c6ccccc6c5c4)c3sc21 [comparative compound 6, reference compound]	E (The average domain size was equal to or less than 0.5 μm.)	E (Equal to or greater than 200%)	D (10 V<|Vafter−Vbefore|≦15 V)
CCCCCCCCCCCCc1ccc(-c2ccc3c(c2)sc2c3ccc3c4ccccc4sc32)s1 [Compound example 386]	C (The average domain size was greater than 1 μm but equal to or less than 5 μm.)	C (Equal to or greater than 50% but less than 100%)	C (5 V<|Vafter−Vbefore|≦10 V)
